Experimental data as given in paper PMC12824147.

Chains of the proteins cited; added tags and fusions are not shown.
UniProt P35222: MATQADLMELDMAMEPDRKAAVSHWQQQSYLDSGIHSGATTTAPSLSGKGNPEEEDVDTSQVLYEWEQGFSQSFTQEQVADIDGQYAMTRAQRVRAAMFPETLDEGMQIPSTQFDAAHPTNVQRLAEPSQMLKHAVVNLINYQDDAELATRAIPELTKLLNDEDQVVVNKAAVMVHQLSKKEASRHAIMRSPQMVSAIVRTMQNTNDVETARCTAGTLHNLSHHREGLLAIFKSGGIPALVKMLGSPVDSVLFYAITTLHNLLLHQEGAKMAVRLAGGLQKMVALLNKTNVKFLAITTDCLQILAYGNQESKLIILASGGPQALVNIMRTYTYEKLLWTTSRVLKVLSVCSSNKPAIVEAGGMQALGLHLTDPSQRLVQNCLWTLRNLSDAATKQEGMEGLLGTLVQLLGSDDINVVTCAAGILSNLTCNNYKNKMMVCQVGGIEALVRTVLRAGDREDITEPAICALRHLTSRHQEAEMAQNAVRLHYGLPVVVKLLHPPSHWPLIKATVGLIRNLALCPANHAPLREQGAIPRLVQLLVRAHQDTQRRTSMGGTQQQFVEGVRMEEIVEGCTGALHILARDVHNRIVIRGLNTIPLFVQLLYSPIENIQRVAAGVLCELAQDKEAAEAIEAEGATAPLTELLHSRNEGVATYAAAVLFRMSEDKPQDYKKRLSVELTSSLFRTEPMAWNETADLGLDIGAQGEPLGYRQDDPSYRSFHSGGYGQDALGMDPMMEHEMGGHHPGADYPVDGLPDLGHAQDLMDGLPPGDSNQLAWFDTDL

Target: T1, FLAG-tagged FAM84A (human) (UniProt Q96KN4)
T1 sequence: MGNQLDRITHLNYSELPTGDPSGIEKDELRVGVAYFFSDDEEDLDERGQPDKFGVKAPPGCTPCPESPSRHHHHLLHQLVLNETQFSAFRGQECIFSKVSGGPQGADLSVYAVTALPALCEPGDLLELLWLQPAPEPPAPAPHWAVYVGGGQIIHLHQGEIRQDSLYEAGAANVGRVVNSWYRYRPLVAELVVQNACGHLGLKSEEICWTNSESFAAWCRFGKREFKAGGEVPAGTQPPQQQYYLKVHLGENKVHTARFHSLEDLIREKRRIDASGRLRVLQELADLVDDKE
Experiment: affinity purification with mass spectrometry; anti-FLAG antibody (IgG as control) on lysate of FAM84A^FLAG-overexpressing CSC spheres, protein A/G magnetic beads, 5 washes with lysis buffer, SDS-PAGE, silver-stained bands cut out for mass spectrometry

binding: binds
Substance: β-catenin (from UniProt P35222 1-781)

No constants are given. Whether binding was seen depends on the method and setting. In cells and extracts the contact can be indirect. A yes stands for co-enrichment or nearness to the bait. Other partners may have been found. Sequences can lack the tags named with a protein.
